Experimental data taken from the supplement of paper PMC10727501.
± gives the standard deviation of the averaged measurements. The list shows a part of the results. This data set is noisy: repeats of one test often differ as much as different tests do.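 Free-swimming zebrafish larvae were assessed for O-bend response probability to dark flashes (naive: first five; training: remaining flashes across four 60-flash blocks; test: later 60-flash block) and for OMR turning toward alternating leftward/rightward LED motion. Six treated larvae were compared against sixty 0.1% DMSO controls; hits required |SSMD|≥2.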

Key:
Details in all cases: 10 µM; pre-incubation: 30-90 min
[1] = tested on: Danio rerio larvae (5 dpf, TLF); assay: OMR-Perf (SSMD vs DMSO vehicle); higher = higher than vehicle (e.g. higher dark-flash O-bend response probability, or better optomotor performance)
[2] = tested on: Danio rerio larvae (5 dpf, TLF); assay: Prob-Test (SSMD vs DMSO vehicle); higher = higher than vehicle (e.g. higher dark-flash O-bend response probability, or better optomotor performance)
[3] = tested on: Danio rerio larvae (5 dpf, TLF); assay: Prob-Naive (SSMD vs DMSO vehicle); higher = higher than vehicle (e.g. higher dark-flash O-bend response probability, or better optomotor performance)
[4] = tested on: Danio rerio larvae (5 dpf, TLF); assay: Prob-Train (SSMD vs DMSO vehicle); higher = higher than vehicle (e.g. higher dark-flash O-bend response probability, or better optomotor performance)

Which OMR-Perf [1] does the source give for Nc1cc(N2CCCCC2)nc(N)[n+]1[O-] [Minoxidil] here?
The OMR-Perf was -0.835.

What about the Prob-Test [2] of the same compound?
The Prob-Test was -0.0796.

And the Prob-Naive [3]?
The Prob-Naive was -0.865.

What about the Prob-Train [4] of the same compound?
Its Prob-Train is -0.12.

How did the OMR-Perf [1] turn out when COc1ccccc1OCCNCC(O)COc1cccc2[nH]c3ccccc3c12 (stereo not drawn) [Carvedilol] was run?
The OMR-Perf was -1.16.

What about the Prob-Test [2] of the same compound?
The Prob-Test was -1.05.

What about the Prob-Naive [3] of the same compound?
Its Prob-Naive is 0.0449.

And the Prob-Train [4]?
The Prob-Train was -1.12.

How did the OMR-Perf [1] turn out when O=C([O-])[C@H](O)[C@@H](O)[C@H](O)[C@H](O)CO.[Na+] [Sodium Gluconate] was run?
The OMR-Perf was -0.221.

What about the Prob-Test [2] of the same compound?
Its Prob-Test is -0.0996.

What about the Prob-Naive [3] of the same compound?
Its Prob-Naive is 0.0912.

And the Prob-Train [4]?
Its Prob-Train is 0.217.

O=C(N[C@H](CO)[C@H](O)c1ccc([N+](=O)[O-])cc1)C(Cl)Cl [Chloramphenicol] was tested. Which OMR-Perf [1] did it give?
Its OMR-Perf is 1.15.

And the Prob-Test [2]?
The Prob-Test was 0.562.

And the Prob-Naive [3]?
Its Prob-Naive is 0.255.

And the Prob-Train [4]?
Its Prob-Train is 1.04.

What does the source list for CC(C)(C)N.CCCC(N[C@@H](C)C(=O)N1[C@@H](C(=O)O)C[C@@H]2CCCC[C@@H]21)C(=O)OCC (stereo partly drawn) [Perindopril Erbumine (Aceon)]?
OMR-Perf [1]: 0.643; Prob-Test [2]: 0.0526; Prob-Naive [3]: -0.252; Prob-Train [4]: -0.499

For Cl.N[C@@H]1CCCCN(c2c(F)cc3c(=O)c(C(=O)O)cn(C4CC4)c3c2Cl)C1 [Besifloxacin HCl (Besivance)], which OMR-Perf [1] is on record?
Its OMR-Perf is -0.239.

What about the Prob-Test [2] of the same compound?
Its Prob-Test is -0.364.

What about the Prob-Naive [3] of the same compound?
The Prob-Naive was -0.0927.

And the Prob-Train [4]?
Its Prob-Train is -0.315.

Which results are given for Cc1noc(NS(=O)(=O)c2ccc(N)cc2)c1C [Sulfisoxazole]?
OMR-Perf [1]: -0.522; Prob-Test [2]: -0.106; Prob-Naive [3]: 0.402; Prob-Train [4]: 0.0322

Which OMR-Perf [1] does the source give for COC(=O)[C@@H]1CC2=CC(=O)CC[C@]2(C)[C@]23O[C@H]2C[C@@]2(C)[C@@H](CC[C@]24CCC(=O)O4)[C@H]13 [Eplerenone] here?
The OMR-Perf was -0.0179 ± 0.27.

What about the Prob-Test [2] of the same compound?
The Prob-Test was -0.038 ± 0.11.

What about the Prob-Naive [3] of the same compound?
The Prob-Naive was 0.134.

And the Prob-Train [4]?
Its Prob-Train is -0.208 ± 0.51.

Which results are given for COc1ccc(-c2ccc3cc(C(=O)O)ccc3c2)cc1C12CC3CC(CC(C3)C1)C2 [Adapalene]?
OMR-Perf [1]: 0.145; Prob-Test [2]: 0.357; Prob-Naive [3]: 0.573; Prob-Train [4]: 0.15

CS(=O)(=O)O.Cc1ccc(NC(=O)c2ccc(CN3CCN(C)CC3)cc2)cc1Nc1nccc(-c2cccnc2)n1 [Imatinib Mesylate (STI571)] was tested. Which OMR-Perf [1] did it give?
The OMR-Perf was 0.88.

What about the Prob-Test [2] of the same compound?
The Prob-Test was -0.479.

What about the Prob-Naive [3] of the same compound?
Its Prob-Naive is 0.147.

And the Prob-Train [4]?
Its Prob-Train is -0.389.

Which results are given for C1=C/COCc2cc(ccc2OCCN2CCCC2)Nc2nccc(n2)-c2cccc(c2)COC/1 [Pacritinib (SB1518)]?
OMR-Perf [1]: -0.293; Prob-Test [2]: 0.773; Prob-Naive [3]: 0.227; Prob-Train [4]: 0.0414

With Cn1cc(-c2ccc3nnc(Sc4ccc5ncccc5c4)n3n2)cn1 as the compound, how does the OMR-Perf [1] read?
The OMR-Perf was -0.387.

What about the Prob-Test [2] of the same compound?
The Prob-Test was -0.699.

And the Prob-Naive [3]?
The Prob-Naive was -0.417.

What about the Prob-Train [4] of the same compound?
Its Prob-Train is -0.435.

Which results are given for O=S(=O)(c1ccccc1)c1cnc2c(N3CCNCC3)cccc2c1?
OMR-Perf [1]: 0.245; Prob-Test [2]: 0.0598; Prob-Naive [3]: 0; Prob-Train [4]: 0.635

How did the OMR-Perf [1] turn out when CC(C)c1nc(CN(C)C(=O)N[C@@H](CCN2CCOCC2)C(=O)N[C@H](CC[C@H](Cc2ccccc2)NC(=O)OCc2cncs2)Cc2ccccc2)cs1 [Cobicistat (GS-9350)] was run?
Its OMR-Perf is 0.273.

And the Prob-Test [2]?
Its Prob-Test is -0.447.

And the Prob-Naive [3]?
Its Prob-Naive is -0.487.

What about the Prob-Train [4] of the same compound?
The Prob-Train was -0.605.

What does the source list for Cc1cccc(-c2nc(C(C)(C)C)[nH]c2-c2ccc3nccnc3c2)n1?
OMR-Perf [1]: 0.189; Prob-Test [2]: -0.831; Prob-Naive [3]: -0.0954; Prob-Train [4]: -0.494

Which results are given for O=C(c1cccc(Cl)c1F)N1CCN(Cc2cccc(Nc3nccs3)n2)CC1?
OMR-Perf [1]: -0.0925; Prob-Test [2]: -0.853; Prob-Naive [3]: -0.212; Prob-Train [4]: 0.05

How did the OMR-Perf [1] turn out when CCCCC(F)(F)C(=O)CC[C@H]1[C@H](O)CC(=O)[C@H]1CCCCCCC(=O)O [Lubiprostone] was run?
Its OMR-Perf is -0.55.

What about the Prob-Test [2] of the same compound?
Its Prob-Test is -1.28.

What about the Prob-Naive [3] of the same compound?
The Prob-Naive was -2.74.

What about the Prob-Train [4] of the same compound?
The Prob-Train was -2.78.
